# According to PubChem BioAssay (NCATS):
# Some of the results follow. Shown are side measurements of this screen, not its main read-out; they come without a call. Most of these compounds were active or inconclusive in the main read-out, so they are no random draw. For some of these results: Words in brackets tell the shape of the fitted curve; partial curves, single points and poor fits give uncertain potencies.
# Experiments:
# [1] = qHTS Assay for Modulators of Human Peripheral Myelin Protein 22 (PMP22) Expression/Activity (AID 1967); conditions: Cell-based PMP22 reporter, dual-color luciferase ratio
# Outline: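 Mouse MSC80 Schwann line, Pmp22 promoter–CBG68 reporter, EF-alpha–CBR internal control. 24h compound exposure, 37 °C/5% CO2, DMEM + 10% FBS. Readout: corrected green/red luminescence ratio, normalized to untreated cells; concentration-response curves fitted and classified.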
# [2] = qHTS Validation Assay to Find Inhibitors of Chronic Active B-Cell Receptor Signaling (AID 485345); conditions: ABC-DLBCL cells, chronic BCR signaling reporter
# Outline: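 TMD8 ABC-DLBCL cells stably carrying doxycycline-inducible IkappaBalpha–green luciferase fusion plus unfused red luciferase; compounds 46 uM to 3 nM, 4 h at 37C with doxycycline. Corrected green/red luminescence ratio normalized to 10 uM MG-132 and basal cell wells; curves fitted.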
# [3] = qHTS for identification of novel therapeutic agents for treatment of microphthalmiaassociated transcription factor (MiT) renal cell carcinoma (RCC) (AID 1963991); conditions: CellTiter-Glo, 48 h; for z-score: stronger effect = lower value;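 on z-score: curves scaled with 100% = DMSO viability and 0% = empty wells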
# Outline: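 UOK109/UOK124/UOK145 (TFE3 fusions, three partners); 500 cells/well; MIPE v4.0, 1912 cpds, 11 conc.; 48 h, 37 C; CellTiter-Glo, 15 min RT; lum. Norm.: DMSO 100%, empty 0%.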
# [4] = S16 Schwann cell PMP22 intronic element beta-lactamase assay (AID 624044); conditions: S16 rat Schwann cells, PMP22 element beta-lactamase FRET, 24 h; measured here: 460 nm blue channel
# Outline: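 Rat S16 Schwann cells with beta-Lac driven by a PMP22 intronic element, compound-treated 24 h at 37 °C. LiveBLAzer FRET B/G read: 460 nm normalized to potassium clavulanate vs DMSO; 535 nm FRET as viability; concentration-effect curves classified.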
# [5] = qHTS assay for small molecule agonists of retinoid X receptor alpha signaling (AID 588544); conditions: HEK293T RXRa-UAS-bla, beta-lactamase reporter, 18 h; 530 nm emission
# [6] = qHTS assay for small molecule antagonists of retinoid X receptor alpha signaling (AID 588546); conditions: HEK293T RXRa-UAS-bla, beta-lactamase ratio, antagonist mode; measured here: W530 green channel, cytotoxicity proxy;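 further: cells stimulated with 9-cis-retinoic acid as agonist; on the % scale 0 is the no-effect control and ±100 the full control effect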
# Outline: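 Beta-lactamase reporter inhibition, read as CCF4 fluorescence ratio (ex 405, em 460/530 nm) after 2 h at RT. HEK293T UAS-bla cells, 2500/well, were stimulated with 9-cis-RA at 500 or 100 nM final alongside test compound for 18 h at 37 C.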
# [7] = Nrf2 qHTS screen for inhibitors: Validation (AID 493153); conditions: A549 ARE-Fluc reporter, 18-24 h; AC50: CellTiter-Fluor fluorescence read, measured here: cytotoxicity CellTiter-Fluor AC50; viability change: measured here: cytotoxicity max response
# Outline: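 A549 cells carrying ARE-firefly luciferase reporter, 5000 cells/well in 5% FBS OPTI-MEM, treated with compound over a concentration series for 18-24 h at 37 C. Luciferase luminescence gave Nrf2 activity; CellTiter-Fluor fluorescence gave viability.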
# [8] = qHTS Assay for Inhibitors of PDE-IV (AID 607); conditions: HEK293 ACTOne CNG channel cells, membrane potential fluorescence; measured here: parental cell counter-screen
# Outline: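 The readout is membrane depolarisation from a cAMP-sensing CNG channel, detected with a potential dye at ex 535/em 590. Cells were HEK293-derived (endogenous PDE-IV) at 1000 cells/well, titrated up to 22.9 uM final.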
# [9] = qHTS assay for small molecule antagonists of peroxisome proliferator-activated receptor delta signaling (AID 588535); conditions: HEK293T PPARd-UAS-bla, beta-lactamase FRET ratio, 18 h; 460 nm channel;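 further: cells co-treated with a PPAR-delta agonist as stimulator during compound exposure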
# Outline: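 Antagonist-mode beta-lactamase reporter (GeneBLAzer PPAR-delta-UAS-bla) in HEK293T cells, 2% charcoal/dextran FBS, 4000 cells/well. Compound titrations, 18 h at 37 C; CCF4 ratio read, IC50 and efficacy from Hill fits.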
# [10] = measured here: red reporter channel AC50, EF-alpha promoter control reporter in MSC80 mouse Schwann cells
# [11] = TFE3-RCC UOK109 viability, measured here: UOK109 Z-AUC
# [12] = TFE3-RCC viability, measured here: UOK124 Z-AUC
# [13] = TFE3-RCC viability, measured here: UOK124 cell viability
# [14] = TFE3-RCC viability, measured here: UOK145 Z-AUC
# [15] = TFE3-RCC viability, measured here: UOK145 cell viability
structure (smiles),measurement,setting,value
CCOC(=O)C1=C[C@]2(CC)CCCN3CCc4c(n1c1ccccc41)[C@@H]32,AC50,"[1]; measured here: green reporter channel AC50, mouse Pmp22 promoter in mouse Schwann cells","67.5 µM [falling, partial curve]"
same,AC50,[1]; [10],"75.7 µM [falling, partial curve]"
same,AC50,[2]; measured here: CBG/CBR ratio read-out,"18.4 µM [falling, partial curve]"
same,z-score,[3]; [11],-0.964
same,z-score,[3]; [12],-0.121
same,AC50,[3]; [13],"16.6 µM [falling, partial curve]"
same,z-score,[3]; [14],-0.264
same,AC50,[3]; [15],"33.2 µM [falling, single point]"
CCCc1nc(C)c2c(=O)[nH]c(-c3cc(S(=O)(=O)N4CCN(CC)CC4)ccc3OCC)nn12,AC50,[4],"1.78 µM [falling, full curve, poor fit]"
same,z-score,[3]; [11],0.392
same,z-score,[3]; [12],0.0313
same,AC50,[3]; [13],"18.7 µM [falling, partial curve]"
same,z-score,[3]; [14],-0.252
same,AC50,[3]; [15],"23.5 µM [falling, partial curve]"
Nc1nc(N)c2nc(CNc3ccc(C(=O)NC(CCC(=O)O)C(=O)O)cc3)cnc2n1 (centres undefined),max response,[5],20.6%
same,max response,[6],34%
same,z-score,[3]; [11],-0.362
same,z-score,[3]; [12],-3.21
same,AC50,[3]; [13],"0.0372 µM [falling, full curve]"
same,z-score,[3]; [14],-3
same,AC50,[3]; [15],"0.0372 µM [falling, full curve]"
C=CCc1cccc(C=NNC(=O)CN2CCN(Cc3ccccc3)CC2)c1O,viability change,[7],-13.2%
same,z-score,[3]; [11],-0.0786
same,z-score,[3]; [12],0.221
same,AC50,[3]; [13],"4.69 µM [falling, full curve]"
same,z-score,[3]; [14],-0.0521
same,AC50,[3]; [15],"16.6 µM [falling, partial curve]"
CCC1=C[C@@H]2CN(C1)Cc1c([nH]c3ccccc13)[C@@](C(=O)OC)(c1cc3c(cc1OC)N(C)[C@@H]1[C@@](O)(C(=O)OC)[C@H](OC(C)=O)[C@]4(CC)C=CCN5CC[C@]31[C@@H]54)C2,AC50,[4],"2.24 µM [falling, full curve, poor fit]"
same,z-score,[3]; [11],-0.605
same,z-score,[3]; [12],-0.834
same,AC50,[3]; [13],"0.372 µM [falling, full curve]"
same,z-score,[3]; [14],-1
same,AC50,[3]; [15],"0.418 µM [falling, full curve]"
Cc1[nH]c(=O)c(C#N)cc1-c1ccc2nccn2c1,AC50,[1]; [10],"75.7 µM [falling, partial curve]"
same,z-score,[3]; [11],0.465
same,z-score,[3]; [12],-0.433
same,AC50,[3]; [13],"0.00148 µM [rising, full curve, poor fit]"
same,z-score,[3]; [14],-0.133
CS(=O)c1ccc(-c2nc(-c3ccc(F)cc3)c(-c3ccncc3)[nH]2)cc1 (centres undefined),AC50,[8],"15.8 µM [falling, partial curve]"
same,z-score,[3]; [11],0.2
same,z-score,[3]; [12],1.18
same,AC50,[3]; [13],"34 µM [falling, partial curve]"
same,z-score,[3]; [14],-0.174
same,AC50,[3]; [15],"48.1 µM [falling, single point]"
CCNC(=O)Nc1ccc(-c2nc3c(c(N4CCOC[C@H]4C)n2)CCN(C2COC2)C3)cc1,z-score,[3]; [11],-0.258
same,z-score,[3]; [12],-0.444
same,AC50,[3]; [13],"2.64 µM [falling, full curve]"
same,z-score,[3]; [14],-0.293
same,AC50,[3]; [15],"2.96 µM [falling, full curve]"
CC[C@H](C)C(=O)O[C@H]1C[C@@H](C)C=C2C=C[C@H](C)[C@H](CC[C@@H]3C[C@@H](O)CC(=O)O3)[C@H]21,max response,[9],20%
same,max response,[5],20.7%
same,max response,[6],-9.55%
same,z-score,[3]; [11],-0.0335
same,z-score,[3]; [12],-0.101
same,AC50,[3]; [13],"4.69 µM [falling, full curve]"
same,z-score,[3]; [14],0.00401
same,AC50,[3]; [15],"14.8 µM [falling, partial curve, poor fit]"
O=C(CCCCCCC(=O)Nc1ccc([C@H]2O[C@@H](CSc3nc(-c4ccccc4)c(-c4ccccc4)o3)C[C@@H](c3ccc(CO)cc3)O2)cc1)NO,z-score,[3]; [11],0.422
same,z-score,[3]; [12],-1.55
same,AC50,[3]; [13],"26.4 µM [falling, partial curve]"
same,z-score,[3]; [14],0.253
same,AC50,[3]; [15],"33.2 µM [falling, single point]"
O=c1c2ccccc2nc2n1CCc1c-2[nH]c2ccccc12,AC50,[1]; [10],"75.7 µM [falling, single point]"
same,AC50,[2]; measured here: CBR control luciferase (viability counter),"5.8 µM [falling, partial curve]"
same,z-score,[3]; [11],0.031
same,z-score,[3]; [12],0.265
same,AC50,[3]; [13],"33.2 µM [falling, single point]"
same,z-score,[3]; [14],-0.0445
O=C(NCC1CCCCN1)c1cc(OCC(F)(F)F)ccc1OCC(F)(F)F (centres undefined),AC50,[1]; [10],"95.3 µM [falling, single point]"
same,z-score,[3]; [11],-0.0203
same,z-score,[3]; [12],0.163
same,AC50,[3]; [13],"1.87 µM [falling, full curve]"
same,z-score,[3]; [14],-0.229
same,AC50,[3]; [15],"9.35 µM [falling, partial curve]"
C=CCNC1=C2C[C@@H](C)C[C@H](OC)[C@@H](O)[C@@H](C)C=C(C)[C@H](OC(N)=O)[C@@H](OC)C=CC=C(C)C(=O)NC(=CC1=O)C2=O,z-score,[3]; [11],-0.656
same,z-score,[3]; [12],-0.919
same,AC50,[3]; [13],"13.2 µM [falling, partial curve]"
same,z-score,[3]; [14],-1.78
same,AC50,[3]; [15],"0.418 µM [falling, full curve]"

# A different layout for some results above.
structure (smiles)	measurement	setting	value
CCNC(=O)Nc1ccc(-c2nc3c(c(N4CCOC[C@H]4C)n2)CCN(C2COC2)C3)cc1	AC50	[3]; [15]	2.96 µM [falling, full curve]
CC[C@H](C)C(=O)O[C@H]1C[C@@H](C)C=C2C=C[C@H](C)[C@H](CC[C@@H]3C[C@@H](O)CC(=O)O3)[C@H]21	max response	[9]	20%
same	max response	[5]	20.7%
same	max response	[6]	-9.55%
same	z-score	[3]; [11]	-0.0335
